According to PubChem BioAssay AID1347076 (National Center for Advancing Translational Sciences (NCATS), 2019):
In all, about 400,000 compounds went through this assay and about 13,000 (3.2%) were called active. This list was built around the results that the source calls inconclusive (neither active nor inactive); the mix of calls is not that of the screen. Calls come from the whole dose curve; as a rule, active = well fitted cell-killing curve with a large enough effect; inconclusive = small, poorly fitted or top-dose-only effect, or effect the other way; inactive = flat fitted curve, though single readings scatter. Where the call is inconclusive, the potency comes from a doubtful curve fit.

test: qHTS assay for MDR1-selective chemotherapeutics: Primary screen using the drug-selected MDR subline cells KB-V1; details: KB-V1 MDR cells viability, CellTiter-Glo, 72 h; activity change, negative = cytotoxicity: at 46.1 µM (top of the series); note: nearly all actives have a fitted effect of over 60% in size
Procedure, shortened: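 Following 72 h at 37 degrees C with compound, KB-V1 cell viability was read by CellTiter-Glo luminescence, medium being phenol-red-free DMEM plus 10% FBS; concentration-response parameters came from normalized, curve-fitted qHTS data.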
% is set by controls: 0 for no effect and ±100 for the full control effect; potency is the fitted concentration of half-maximal effect.

| SMILES | Potency | activity change, negative = cytotoxicity |
| --- | --- | --- |
| Cc1nnc(-c2ccc(Oc3ccc(C)c(C)c3)c([N+](=O)[O-])c2)o1 | active: 14.6 µM | – |
| Cc1cc(NC(=O)CSc2nnc(C(C)N(C)C)n2Cc2ccccc2)no1 (stereo not drawn) | inconclusive: 20.6 µM [cytotoxic, partial curve, poor fit] | – |
| Cc1ccc(NC(=O)c2cc(S(=O)(=O)c3ccccc3)ccc2Cl)cc1 | inconclusive: 2.31 µM [cytotoxic, partial curve, poor fit] | – |
| COc1ccc(OC)c(Nc2nc(-c3cccc([N+](=O)[O-])c3)nc3ccccc23)c1 | inactive | – |
| Cc1cc(OCc2cc(C(=O)N(C)C(C)c3ccccn3)no2)cc(C)c1Cl (stereo not drawn) | inconclusive: 2.59 µM [cytotoxic, full curve] | – |
| COC(=O)c1cc2sccc2n1Cc1nc(-c2cccc(Cl)c2)oc1C | inconclusive: 29.1 µM [cytotoxic, single point] | – |
| CCOC(=O)C1(CCOc2ccccc2)CCN(C(=O)c2cncs2)CC1 | inconclusive: 18.4 µM [cytotoxic, single point] | – |
| CCCCOC(=O)CSc1ncnc2sc3c(c12)CCC(C)C3 (stereo not drawn) | inconclusive: 18.4 µM [rising, partial curve] | – |
| CCC(=O)Nc1ccc(S(=O)(=O)NCCc2ccccc2)cc1 | inconclusive: 25.9 µM [cytotoxic, single point] | – |
| COc1ccc(OC)c(CNC(=O)COc2cc(=O)n(C)c3ccccc23)c1 | active: 18.4 µM | – |
| CN(C)S(=O)(=O)c1cccc(NC(=O)CSc2cccc3cccnc23)c1 | inconclusive: 23.1 µM [cytotoxic, single point] | – |
| CC(=O)c1ccc(S(=O)(=O)Nc2ccc3c(c2)OCO3)cc1 | inactive | – |
| Cc1csc(=O)n1CCC(=O)OCC(=O)Nc1ccc(N2CCOCC2)cc1 | inconclusive: 18.4 µM [rising, single point] | – |
| CCOC(=O)c1ccc(-n2ccnc2)c(NC(=O)c2ccc(C(C)(C)C)cc2)c1 | inactive | – |
| O=C(CCS(=O)(=O)c1ccc(Br)s1)Nc1cc(C(F)(F)F)cc(C(F)(F)F)c1 | inconclusive: 29.1 µM [cytotoxic, single point] | – |
| CC(C)[C@H](NC(=O)c1ccc(C(C)(C)C)cc1)C(=O)Nc1nnc(C2CC2)s1 | inconclusive: 4.61 µM [cytotoxic, full curve] | – |
| CC1CC(C)(C)N(C(=O)CSc2ccc(-c3ccc(F)cc3)nn2)c2ccccc21 (stereo not drawn) | active: 20.6 µM | – |
| CN(CC(=O)Nc1cccc(F)c1)C(=O)c1ccc(COc2ccccc2)o1 | active: 20.6 µM | – |
| CCC(OC(=O)C(CC(C)C)NC(=O)c1ccccc1)C(=O)Nc1nnc(C)s1 (stereo not drawn) | inactive | – |
| CC(=O)NC(c1cccc(F)c1)c1nc(-c2ccc3ccccc3c2)cs1 (stereo not drawn) | inactive | – |
| C[C@H](O)[C@@H]1CN2CCc3c([nH]c4ccccc34)[C@@H]2C[C@@H]1N(C)C(=O)c1ccco1 | inconclusive: 29.1 µM [cytotoxic, single point] | – |
| O=c1c2ccccc2sc2nc(CCl)nn12 | inconclusive: 10.3 µM [cytotoxic, partial curve] | – |
| COc1cccc(-c2nc(-c3ccccn3)no2)c1 | inconclusive: 32.6 µM [cytotoxic, partial curve, poor fit] | – |

2 consecutive records already listed, for reference:

| SMILES | Potency | activity change, negative = cytotoxicity |
| --- | --- | --- |
| CCCCOC(=O)CSc1ncnc2sc3c(c12)CCC(C)C3 (stereo not drawn) | inconclusive: 18.4 µM [rising, partial curve] | – |
| CCC(=O)Nc1ccc(S(=O)(=O)NCCc2ccccc2)cc1 | inconclusive: 25.9 µM [cytotoxic, single point] | – |

Next structures follow.

| SMILES | Potency | activity change, negative = cytotoxicity |
| --- | --- | --- |
| Cc1cc(C(C)(C)C)cc(S(=O)(=O)Nc2ccc(O)c(C(=O)O)c2)c1C | inactive | – |
| COc1ccccc1C=C1SC(=S)NC1=O | inactive | – |
| CCCCCCCC[n+]1cccc(C(=O)N(CC)CC)c1 | inactive | – |
| Cc1ccc(NC(=O)CSCC(=O)N(C)Cc2c(F)cccc2Cl)cc1 | inconclusive: 16.4 µM [cytotoxic, single point] | – |
| COc1ccc(-c2nc(CSCC(=O)N3CCN(c4ccccc4F)CC3)c(C)o2)cc1 | inconclusive: 14.6 µM [cytotoxic, partial curve] | – |
| O=C(Nc1ccc(N2CCOCC2)cc1)c1ccc([N+](=O)[O-])o1 | inconclusive: 18.4 µM [cytotoxic, single point] | – |
| COc1ccc(CNc2nc(NCc3ccc(OC)c(OC)c3)n(C(=O)c3cccs3)n2)cc1OC | inconclusive: 18.4 µM [cytotoxic, single point] | – |
| COc1ccc(Nc2ncccc2C(=O)NCc2ccccc2)cc1 | inconclusive: 16.4 µM [cytotoxic, partial curve, poor fit] | – |
| CN(CC(=O)OCC(=O)NC(=O)c1cccn1C)S(=O)(=O)c1ccc(Cl)cc1 | inconclusive: 18.4 µM [rising, single point] | – |
| O=C1N[C@@H](c2ccccc2)COC(=O)[C@@H](Cc2ccc(F)cc2)C/C=C\C[C@H]1CC(=O)N(CCO)Cc1ccccc1 | inconclusive: 20.6 µM [cytotoxic, single point] | – |
| Cc1cc(S(=O)(=O)Nc2c(C)nn(C)c2C)c(Cl)cc1Cl | active: 18.4 µM | – |
| CCOC(=O)c1cnc(SCCc2ccccc2)nc1N | active: 23.1 µM | – |
| CCN1CCN(C(=O)CSc2cc(=O)n(CC)c3ccccc23)CC1 | inconclusive: 20.6 µM [cytotoxic, single point] | – |
| CCn1c(SCC(=O)N2CCCCC2C)nnc1-c1ccco1 (stereo not drawn) | inconclusive: 23.1 µM [cytotoxic, single point] | – |
| O=C(NN=C1C2CC3CC1CC(Cl)(C3)C2)c1ccccn1 | inconclusive: 25.9 µM [rising, single point] | – |
| Cc1cccc(-c2cc(C(=O)N/N=C/c3cccnc3)c3ccccc3n2)c1 | inconclusive: 23.1 µM [rising, single point] | – |
| COc1ccc(OC)c(-c2cc(C(=O)N/N=C/c3ccc(F)cc3)c3ccccc3n2)c1 | inactive | – |
| CC(C)CN(C(=O)COC(=O)c1cnc(Cl)c(Cl)c1)c1c(N)n(Cc2ccccc2)c(=O)[nH]c1=O | inconclusive: 14.6 µM [rising, partial curve, poor fit] | – |
| COc1ccc(S(=O)(=O)N2CCCC2CNC(=O)C(=O)NCc2ccccc2)cc1 (stereo not drawn) | inconclusive: 29.1 µM [cytotoxic, single point] | – |
| CCOC(=O)c1ccc(NC(=O)C2CCCN(S(=O)(=O)c3ccc(F)cc3)C2)cc1 (stereo not drawn) | inconclusive: 10.3 µM [cytotoxic, partial curve, poor fit] | – |
| CCOc1cc(C)c(Cl)cc1S(=O)(=O)NCCOC | inactive | – |
| Cc1cc(NC(=S)N(CCCN2CCN(C)CC2)Cc2ccco2)ccc1Cl | inconclusive: 6.51 µM [cytotoxic, partial curve, poor fit] | – |
| O=C(C[C@H]1C[C@@H]2c3cc(NC(=O)C4CCC4)ccc3O[C@@H]2[C@H](CO)O1)NC1CCCCC1 | inactive | – |

| SMILES | Potency | activity change, negative = cytotoxicity |
| --- | --- | --- |
| COc1ccc(C(=O)C2CCCN(Cc3ccc4nonc4c3)C2)c(OC)c1 (stereo not drawn) | inactive | – |
| CCOC(=O)C1(CCOc2ccccc2)CCN(Cc2ccc(-n3cccn3)cc2)CC1 | inconclusive: 25.9 µM [cytotoxic, single point] | – |
| CNC(=O)Nc1ccc2nc(C)oc2c1 | inconclusive: 32.6 µM [rising, single point] | – |
| CCOC(=O)c1cccc(NC(=O)CSc2ncc3c(n2)-c2ccc(Cl)cc2N(Cc2ccccc2)S3(=O)=O)c1 | inactive | – |
| CC(=O)C1=C(O)C(=O)N(c2ccc(O)cc2)C1c1ccccc1F (stereo not drawn) | inactive | – |
| CC(=O)c1cccc(CN2CCC(CO)(CCCc3ccccc3)CC2)c1 | inconclusive: 5.17 µM [cytotoxic, partial curve, poor fit] | – |
| O=C(CN1CCOCC1)Nc1nc(-c2ccc3c(c2)CCN3S(=O)(=O)c2ccccc2)cs1 | inconclusive: 11.6 µM [cytotoxic, partial curve, poor fit] | – |
| CCOCCn1c(N2CCN(c3ccc(OC)cc3)CC2)nc2c1c(=O)n(C)c(=O)n2C | inactive | – |
| Cc1cccc(N2CC(C(=O)Nc3nnc(SCC(=O)NCC4CCCO4)s3)CC2=O)c1 (stereo not drawn) | inactive | – |
| S=C(Nc1cc(Cl)cc(Cl)c1)N1CCN(c2ccccn2)CC1 | inconclusive: 4.11 µM [rising, full curve, poor fit] | – |
| NC(CSC(c1ccccc1)(c1ccccc1)c1ccccc1)C(=O)O (stereo not drawn) | inconclusive: 14.6 µM [cytotoxic, partial curve] | – |
| O=C(NCCc1ccccc1)c1ccc(-c2ccc(F)c(F)c2)c2ccoc12 | – | inconclusive: -31.7% [cytotoxic] |
| CCc1cc(CNC(=O)c2ccc3nc(Cc4ccc(OC)c(OC)c4)oc3c2)on1 | inconclusive: 23.1 µM [cytotoxic, single point] | – |
| CC(=O)Nc1nc(Cn2nnc(-c3ccc4c(c3)OCO4)n2)nc(N(C)C)n1 | inconclusive: 18.4 µM [cytotoxic, single point] | – |
| CC(=O)Nc1cccc(-c2ccnc3c2CC(C(=O)NCCN(C)C)O3)c1 (stereo not drawn) | inactive | – |
| COC(=O)CN(c1ccc2c(c1)OCO2)S(=O)(=O)c1c(C)[nH]c(=O)[nH]c1=O | inconclusive: 23.1 µM [rising, single point] | – |
| Cc1c(C)n(Cc2ccccc2)c2ccc(C(=O)N3CCN(c4ccccc4)CC3)cc12 | inactive | – |
| CCN(c1ccccc1)S(=O)(=O)c1ccc(N2CCN(c3ccccc3O)CC2)nc1 | inconclusive: 25.9 µM [cytotoxic, single point] | – |
| CCCN1C(=O)c2[nH]nc(-c3cc(Cl)c(C)cc3O)c2C1c1ccc(O)c(OC)c1 (stereo not drawn) | inactive | – |
| O=C(c1cc2sccc2n1Cc1ccc(F)cc1)N1CCCc2ccccc21 | inconclusive: 25.9 µM [cytotoxic, partial curve, poor fit] | – |
| Cc1ccc(C(=O)OCC(=O)Nc2ccc3c(c2)OCO3)cc1S(=O)(=O)N1CCOCC1 | inactive | – |
| COc1ccc(C)cc1S(=O)(=O)NC(C)C(=O)Nc1ccc2c(c1)OCO2 (stereo not drawn) | inactive | – |
